1 substance from patent publication US20210009714A1 can be followed below.

Protein sequences, listed by entry. Tags and fused reporters are not part of them. Lines headed by an entry give the natural chain unless they say otherwise; changes in a name come on top.
UniProt P31785: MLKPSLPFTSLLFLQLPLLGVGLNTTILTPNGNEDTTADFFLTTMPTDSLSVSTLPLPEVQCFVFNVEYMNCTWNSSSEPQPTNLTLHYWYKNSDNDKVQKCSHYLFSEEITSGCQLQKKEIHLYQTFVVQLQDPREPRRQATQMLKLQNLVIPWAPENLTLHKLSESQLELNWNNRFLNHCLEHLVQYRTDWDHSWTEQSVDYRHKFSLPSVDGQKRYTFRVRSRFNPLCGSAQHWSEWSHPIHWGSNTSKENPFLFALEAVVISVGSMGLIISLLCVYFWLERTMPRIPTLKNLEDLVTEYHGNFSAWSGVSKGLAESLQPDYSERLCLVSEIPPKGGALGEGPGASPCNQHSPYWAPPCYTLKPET

No constants are given. Whether binding was seen depends on the method and setting. Some results given as binding are weak or reduced against the parent protein; the word gives no strength.

In this assay the target is Protein G/hFcγRI chimeric protein (Streptococcus strain G148; human). Description: flow cytometry on RGC19 cells, rabbit IgG block, FITC anti-human IgG F(ab')2 detection. In general terms: A flow cytometer gives signals particle by particle.

As for “4SC622 (from UniProt P31785 23-262; P24394 26-232; P01857 104-330) (Fc fusion)”, the binding entry was “binds”.
